Assay results: the supplement of paper PMC7661543
Differences between knockout arms are mostly noise.

Tested on: SKBR3
Experiment: relative cell number vs DMSO control (72 h) (% of DMSO); higher = less growth inhibition (more cells)
Procedure: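 QMAP-Seq: a pool of 5 breast cancer cell lines (ZR-75-1, SKBR3, HCC-38, MDA-MB-231, BT-20), each carrying 12 doxycycline-inducible Cas9 sgRNA perturbations (11 knockouts plus non-targeting sgNT), was treated with compounds for 72 h at four 10-fold doses (10 nM-10 uM or 1 nM-1 uM range). Barcodes were amplified and sequenced, and cell number was interpolated from 293T spike-in standard curves. The result is expressed as % of the median of DMSO wells. Two biological replicates.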

COCC[n+]1c2c(n(Cc3cnccn3)c1C)C(=O)c1ccccc1C2=O [YM155]
Conditions | relative cell number
sgRNA knockout: sgATF3, 1 nM | 80.7
sgRNA knockout: sgATF3, 10 nM | 57.2
sgRNA knockout: sgATF3, 100 nM | 4.22
sgRNA knockout: sgATF3, 1000 nM | 7.14
sgRNA knockout: sgATF4, 1 nM | 87.8
sgRNA knockout: sgATF4, 10 nM | 74.6
sgRNA knockout: sgATF4, 100 nM | 14.9
sgRNA knockout: sgATF4, 1000 nM | 8.42
sgRNA knockout: sgATF6, 1 nM | 89.1
sgRNA knockout: sgATF6, 10 nM | 59.1
sgRNA knockout: sgATF6, 100 nM | 9.96
sgRNA knockout: sgATF6, 1000 nM | 3.99
sgRNA knockout: sgATG7, 1 nM | 92.7
sgRNA knockout: sgATG7, 10 nM | 61
sgRNA knockout: sgATG7, 100 nM | 9.21
sgRNA knockout: sgATG7, 1000 nM | 6.62
sgRNA knockout: sgERN1, 1 nM | 109
sgRNA knockout: sgERN1, 10 nM | 56.4
sgRNA knockout: sgERN1, 100 nM | 6.99
sgRNA knockout: sgERN1, 1000 nM | 7.86
sgRNA knockout: sgHSF1, 1 nM | 86.6
sgRNA knockout: sgHSF1, 10 nM | 63.7
sgRNA knockout: sgHSF1, 100 nM | 6.35
sgRNA knockout: sgHSF1, 1000 nM | 5.91
sgRNA knockout: sgHSF2, 1 nM | 102
sgRNA knockout: sgHSF2, 10 nM | 71.9
sgRNA knockout: sgHSF2, 100 nM | 7.73
sgRNA knockout: sgHSF2, 1000 nM | 7.97
sgRNA knockout: sgKEAP1, 1 nM | 75.7
sgRNA knockout: sgKEAP1, 10 nM | 45.4
sgRNA knockout: sgKEAP1, 100 nM | 6.71
sgRNA knockout: sgKEAP1, 1000 nM | 6.66
sgRNA knockout: sgNFE2L2, 1 nM | 96.4
sgRNA knockout: sgNFE2L2, 10 nM | 67.7
sgRNA knockout: sgNFE2L2, 100 nM | 11.5
sgRNA knockout: sgNFE2L2, 1000 nM | 6.77
sgRNA knockout: sgSLC35F2, 1 nM | 82.1
sgRNA knockout: sgSLC35F2, 10 nM | 56.5
sgRNA knockout: sgSLC35F2, 100 nM | 9.46
sgRNA knockout: sgSLC35F2, 1000 nM | 6.98
sgRNA knockout: sgXBP1, 1 nM | 101
sgRNA knockout: sgXBP1, 10 nM | 72.8
sgRNA knockout: sgXBP1, 100 nM | 8.16
sgRNA knockout: sgXBP1, 1000 nM | 5.91

CC[C@H](Nc1ncnc2[nH]cnc12)c1nc2cccc(F)c2c(=O)n1-c1ccccc1 [CAL101]
Conditions | relative cell number
sgRNA knockout: sgATF3, 10 nM | 91.4
sgRNA knockout: sgATF3, 100 nM | 78.4
sgRNA knockout: sgATF3, 1000 nM | 112
sgRNA knockout: sgATF3, 10000 nM | 75.4
sgRNA knockout: sgATF4, 10 nM | 75.3
sgRNA knockout: sgATF4, 100 nM | 106
sgRNA knockout: sgATF4, 1000 nM | 101
sgRNA knockout: sgATF4, 10000 nM | 89
sgRNA knockout: sgATF6, 10 nM | 66.9
sgRNA knockout: sgATF6, 100 nM | 80.7
sgRNA knockout: sgATF6, 1000 nM | 91.2
sgRNA knockout: sgATF6, 10000 nM | 98.7
sgRNA knockout: sgATG7, 10 nM | 99.2
sgRNA knockout: sgATG7, 100 nM | 73.3
sgRNA knockout: sgATG7, 1000 nM | 96.5
sgRNA knockout: sgATG7, 10000 nM | 102
sgRNA knockout: sgERN1, 10 nM | 73.9
sgRNA knockout: sgERN1, 100 nM | 78.8
sgRNA knockout: sgERN1, 1000 nM | 113
sgRNA knockout: sgERN1, 10000 nM | 99.1
sgRNA knockout: sgHSF1, 10 nM | 71.7
sgRNA knockout: sgHSF1, 100 nM | 89.2
sgRNA knockout: sgHSF1, 1000 nM | 86.2
sgRNA knockout: sgHSF1, 10000 nM | 102
sgRNA knockout: sgHSF2, 10 nM | 87.65
sgRNA knockout: sgHSF2, 100 nM | 89.5
sgRNA knockout: sgHSF2, 1000 nM | 103
sgRNA knockout: sgHSF2, 10000 nM | 90.5
sgRNA knockout: sgKEAP1, 10 nM | 76.9
sgRNA knockout: sgKEAP1, 100 nM | 83.1
sgRNA knockout: sgKEAP1, 1000 nM | 94.5
sgRNA knockout: sgKEAP1, 10000 nM | 81.8
sgRNA knockout: sgNFE2L2, 10 nM | 74.6
sgRNA knockout: sgNFE2L2, 100 nM | 67.9
sgRNA knockout: sgNFE2L2, 1000 nM | 82.8
sgRNA knockout: sgNFE2L2, 10000 nM | 85.3
sgRNA knockout: sgSLC35F2, 10 nM | 88.2
sgRNA knockout: sgSLC35F2, 100 nM | 106
sgRNA knockout: sgSLC35F2, 1000 nM | 97.5
sgRNA knockout: sgSLC35F2, 10000 nM | 74.72
sgRNA knockout: sgXBP1, 10 nM | 78.324
sgRNA knockout: sgXBP1, 100 nM | 105
sgRNA knockout: sgXBP1, 1000 nM | 106
sgRNA knockout: sgXBP1, 10000 nM | 98.9

CC(=O)O[C@H]1C(=O)[C@@]2(C)[C@H]([C@H](OC(=O)c3ccccc3)[C@]3(O)C[C@H](OC(=O)[C@H](O)[C@@H](NC(=O)c4ccccc4)c4ccccc4)C(C)=C1C3(C)C)[C@]1(OC(C)=O)CO[C@@H]1C[C@@H]2O [Paclitaxel]
Conditions | relative cell number
sgRNA knockout: sgATF3, 10 nM | 15.1
sgRNA knockout: sgATF3, 100 nM | 11.8
sgRNA knockout: sgATF3, 1000 nM | 17.6
sgRNA knockout: sgATF3, 10000 nM | 24.6
sgRNA knockout: sgATF4, 10 nM | 18.4
sgRNA knockout: sgATF4, 100 nM | 7.67
sgRNA knockout: sgATF4, 1000 nM | 10.2
sgRNA knockout: sgATF4, 10000 nM | 15.7
sgRNA knockout: sgATF6, 10 nM | 10.2
sgRNA knockout: sgATF6, 100 nM | 9.13
sgRNA knockout: sgATF6, 1000 nM | 11.9
sgRNA knockout: sgATF6, 10000 nM | 18.8
sgRNA knockout: sgATG7, 10 nM | 19
sgRNA knockout: sgATG7, 100 nM | 7.32
sgRNA knockout: sgATG7, 1000 nM | 13.7
sgRNA knockout: sgATG7, 10000 nM | 16.3
sgRNA knockout: sgERN1, 10 nM | 15.8
sgRNA knockout: sgERN1, 100 nM | 14.2
sgRNA knockout: sgERN1, 1000 nM | 11.65
sgRNA knockout: sgERN1, 10000 nM | 13.1
sgRNA knockout: sgHSF1, 10 nM | 15.6
sgRNA knockout: sgHSF1, 100 nM | 6.4
sgRNA knockout: sgHSF1, 1000 nM | 12
sgRNA knockout: sgHSF1, 10000 nM | 18.3
sgRNA knockout: sgHSF2, 10 nM | 22.9
sgRNA knockout: sgHSF2, 100 nM | 7.229
sgRNA knockout: sgHSF2, 1000 nM | 11.8
sgRNA knockout: sgHSF2, 10000 nM | 22.5
sgRNA knockout: sgKEAP1, 10 nM | 15
sgRNA knockout: sgKEAP1, 100 nM | 8.79
sgRNA knockout: sgKEAP1, 1000 nM | 9.15
sgRNA knockout: sgKEAP1, 10000 nM | 16.9
sgRNA knockout: sgNFE2L2, 10 nM | 15
sgRNA knockout: sgNFE2L2, 100 nM | 10.2
sgRNA knockout: sgNFE2L2, 1000 nM | 12.3
sgRNA knockout: sgNFE2L2, 10000 nM | 17.3
sgRNA knockout: sgSLC35F2, 10 nM | 15.6
sgRNA knockout: sgSLC35F2, 100 nM | 11.2
sgRNA knockout: sgSLC35F2, 1000 nM | 10.2
sgRNA knockout: sgSLC35F2, 10000 nM | 21.2
sgRNA knockout: sgXBP1, 10 nM | 15.3
sgRNA knockout: sgXBP1, 100 nM | 6.56
sgRNA knockout: sgXBP1, 1000 nM | 12.3
sgRNA knockout: sgXBP1, 10000 nM | 18.5
